Measured data: PubChem BioAssay AID652272 (Drosophila RNAi Screening Center, 2013)
The screen tested about 21,000 reagents; this is an unselected part of those with a known target gene and a result. Of all reagents, 503 (2.4%) are marked active. 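Raw plate light values, not normalised; calls rest on replicate z-scores that were not deposited; hits include reporter decreases as well as increases.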 Names joined by + are all predicted targets of the reagent. Not stated in the record: the amount of reagent, the time to read-out.

Purpose: 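Genes whose knock-down decreases or increases Hedgehog reporter output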 (primary screen)
System: Drosophila clone 8 (Cl8) cells
Reagents: long dsRNA against Drosophila genes
Read-out: 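Firefly light from a Hedgehog-responsive ptc promoter reporter and Renilla reference light, both read on a plate reader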
Scale: firefly Hh reporter signal: higher = more ptc reporter light; Renilla reference signal: higher = more Renilla control light
Call rule: 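Hit when the z-score averaged over two replicates is under -2 or over +3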
Meaning of the calls: active = hit: reporter lowered or raised; inactive = not a hit

CG8117 [DRSC20082] | firefly Hh reporter signal, replicate 1: 61365; firefly Hh reporter signal, replicate 2: 1.34e5; Renilla reference signal, replicate 1: 1624; Renilla reference signal, replicate 2: 6896; activity call: inactive
CG31191 [DRSC13455] | firefly Hh reporter signal, replicate 1: 44180; firefly Hh reporter signal, replicate 2: 3.25e5; Renilla reference signal, replicate 1: 8618; Renilla reference signal, replicate 2: 8170; activity call: inactive
CG31191 [DRSC15214] | firefly Hh reporter signal, replicate 1: 5.61e5; firefly Hh reporter signal, replicate 2: 82736; Renilla reference signal, replicate 1: 27961; Renilla reference signal, replicate 2: 1883; activity call: inactive
CG31191 [DRSC15215] | firefly Hh reporter signal, replicate 1: 4.78e5; firefly Hh reporter signal, replicate 2: 55287; Renilla reference signal, replicate 1: 25449; Renilla reference signal, replicate 2: 1692; activity call: inactive
rdx [DRSC14526] | firefly Hh reporter signal, replicate 1: 43245; firefly Hh reporter signal, replicate 2: 63321; Renilla reference signal, replicate 1: 1176; Renilla reference signal, replicate 2: 1936; activity call: inactive
rdx [DRSC16580] | firefly Hh reporter signal, replicate 1: 75010; firefly Hh reporter signal, replicate 2: 1.15e5; Renilla reference signal, replicate 1: 1400; Renilla reference signal, replicate 2: 1956; activity call: active
CG3107 [DRSC04888] | firefly Hh reporter signal, replicate 1: 62099; firefly Hh reporter signal, replicate 2: 78304; Renilla reference signal, replicate 1: 2915; Renilla reference signal, replicate 2: 2900; activity call: inactive
CG7881 [DRSC04898] | firefly Hh reporter signal, replicate 1: 88252; firefly Hh reporter signal, replicate 2: 45735; Renilla reference signal, replicate 1: 1704; Renilla reference signal, replicate 2: 4166; activity call: inactive

Reagents above with an active call:
rdx [DRSC16580] | firefly Hh reporter signal, replicate 1: 75010; firefly Hh reporter signal, replicate 2: 1.15e5; Renilla reference signal, replicate 1: 1400; Renilla reference signal, replicate 2: 1956; activity call: active

Additional reagents follow.
wrm1 + wrm2 [DRSC11007] | firefly Hh reporter signal, replicate 1: 1.54e5; firefly Hh reporter signal, replicate 2: 98825; Renilla reference signal, replicate 1: 5676; Renilla reference signal, replicate 2: 3965; activity call: inactive
CG13901 [DRSC08371] | firefly Hh reporter signal, replicate 1: 61379; firefly Hh reporter signal, replicate 2: 41008; Renilla reference signal, replicate 1: 1505; Renilla reference signal, replicate 2: 2928; activity call: inactive
brv2 [DRSC10226] | firefly Hh reporter signal, replicate 1: 1.34e5; Renilla reference signal, replicate 1: 1715; Renilla reference signal, replicate 2: 3409; activity call: inactive
CG5162 [DRSC19935] | firefly Hh reporter signal, replicate 1: 77035; firefly Hh reporter signal, replicate 2: 2.09e5; Renilla reference signal, replicate 1: 1960; Renilla reference signal, replicate 2: 7899; activity call: inactive
